Measurements taken from publication PMC10454621.
No constants are given. Whether binding was seen depends on the method and setting. Binding calls can cover weak binding; strength is not graded here.

Assays:
[1] = target: insulin; test: far-UV CD spectroscopy; aggregated or fibrillar form of the mammalian protein (0.5 mg/mL; for lysozyme during fibrillogenesis and after its completion) mixed with vicilin amyloid fibrils (0.1 mg/mL), incubated for 2 h; interaction read from a change in the CD spectrum; both purified
[2] = target: insulin; test: far-UV CD spectroscopy; monomeric form of the mammalian protein (0.5 mg/mL) mixed with vicilin amyloid fibrils (0.1 mg/mL), incubated for 2 h; interaction read from a change in the CD spectrum; both purified

binding [1]: binds | binding [2]: binds weakly
B1: 7S seed storage globulin vicilin of the garden pea Pisum sativum L. (protein, UniProt P13918 29-459)
chain: RSDPQNPFIFKSNKFQTLFENENGHIRLLQKFDQRSKIFENLQNYRLLEYKSKPHTIFLPQHTDADYILVVLSGKAILTVLKPDDRNSFNLERGDTIKLPAGTIAYLVNRDDNEELRVLDLAIPVNRPGQLQSFLLSGNQNQQNYLSGFSKNILEASFNTDYEEIEKVLLEEHEKETQHRRSLKDKRQQSQEENVIVKLSRGQIEELSKNAKSTSKKSVSSESEPFNLRSRGPIYSNEFGKFFEITPEKNPQLQDLDIFVNSVEIKEGSLLLPHYNSRAIVIVTVNEGKGDFELVGQRNENQQEQRKEDDEEEEQGEEEINKQVQNYKAKLSSGDVFVIPAGHPVAVKASSNLDLLGFGINAENNQRNFLAGDEDNVISQIQRPVKELAFPGSAQEVDRILENQKQSHFADAQPQQRERGSRETRDRLSSV
